Measurements published in publication doi:10.1101/2025.10.06.680735, “JMJD1B-mediated FEN1 demethylation allows timely switching of Okazaki fragment maturation core enzymes to avoid mutagenic flap ligation by PARP1-LIG3” (bioRxiv, 2025).

Chains of the proteins cited; added tags and fusions are not shown.
UniProt P39748: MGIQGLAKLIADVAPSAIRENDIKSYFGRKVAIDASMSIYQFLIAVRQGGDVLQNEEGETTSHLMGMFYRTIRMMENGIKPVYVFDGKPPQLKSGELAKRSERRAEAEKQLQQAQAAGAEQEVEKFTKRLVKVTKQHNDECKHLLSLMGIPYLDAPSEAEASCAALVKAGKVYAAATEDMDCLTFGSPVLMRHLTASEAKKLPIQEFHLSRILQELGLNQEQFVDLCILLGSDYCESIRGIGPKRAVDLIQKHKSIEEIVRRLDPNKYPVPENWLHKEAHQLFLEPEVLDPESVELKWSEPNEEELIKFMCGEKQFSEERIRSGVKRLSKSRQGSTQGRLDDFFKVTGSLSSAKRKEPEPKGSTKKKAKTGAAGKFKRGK
UniProt Q7LBC6: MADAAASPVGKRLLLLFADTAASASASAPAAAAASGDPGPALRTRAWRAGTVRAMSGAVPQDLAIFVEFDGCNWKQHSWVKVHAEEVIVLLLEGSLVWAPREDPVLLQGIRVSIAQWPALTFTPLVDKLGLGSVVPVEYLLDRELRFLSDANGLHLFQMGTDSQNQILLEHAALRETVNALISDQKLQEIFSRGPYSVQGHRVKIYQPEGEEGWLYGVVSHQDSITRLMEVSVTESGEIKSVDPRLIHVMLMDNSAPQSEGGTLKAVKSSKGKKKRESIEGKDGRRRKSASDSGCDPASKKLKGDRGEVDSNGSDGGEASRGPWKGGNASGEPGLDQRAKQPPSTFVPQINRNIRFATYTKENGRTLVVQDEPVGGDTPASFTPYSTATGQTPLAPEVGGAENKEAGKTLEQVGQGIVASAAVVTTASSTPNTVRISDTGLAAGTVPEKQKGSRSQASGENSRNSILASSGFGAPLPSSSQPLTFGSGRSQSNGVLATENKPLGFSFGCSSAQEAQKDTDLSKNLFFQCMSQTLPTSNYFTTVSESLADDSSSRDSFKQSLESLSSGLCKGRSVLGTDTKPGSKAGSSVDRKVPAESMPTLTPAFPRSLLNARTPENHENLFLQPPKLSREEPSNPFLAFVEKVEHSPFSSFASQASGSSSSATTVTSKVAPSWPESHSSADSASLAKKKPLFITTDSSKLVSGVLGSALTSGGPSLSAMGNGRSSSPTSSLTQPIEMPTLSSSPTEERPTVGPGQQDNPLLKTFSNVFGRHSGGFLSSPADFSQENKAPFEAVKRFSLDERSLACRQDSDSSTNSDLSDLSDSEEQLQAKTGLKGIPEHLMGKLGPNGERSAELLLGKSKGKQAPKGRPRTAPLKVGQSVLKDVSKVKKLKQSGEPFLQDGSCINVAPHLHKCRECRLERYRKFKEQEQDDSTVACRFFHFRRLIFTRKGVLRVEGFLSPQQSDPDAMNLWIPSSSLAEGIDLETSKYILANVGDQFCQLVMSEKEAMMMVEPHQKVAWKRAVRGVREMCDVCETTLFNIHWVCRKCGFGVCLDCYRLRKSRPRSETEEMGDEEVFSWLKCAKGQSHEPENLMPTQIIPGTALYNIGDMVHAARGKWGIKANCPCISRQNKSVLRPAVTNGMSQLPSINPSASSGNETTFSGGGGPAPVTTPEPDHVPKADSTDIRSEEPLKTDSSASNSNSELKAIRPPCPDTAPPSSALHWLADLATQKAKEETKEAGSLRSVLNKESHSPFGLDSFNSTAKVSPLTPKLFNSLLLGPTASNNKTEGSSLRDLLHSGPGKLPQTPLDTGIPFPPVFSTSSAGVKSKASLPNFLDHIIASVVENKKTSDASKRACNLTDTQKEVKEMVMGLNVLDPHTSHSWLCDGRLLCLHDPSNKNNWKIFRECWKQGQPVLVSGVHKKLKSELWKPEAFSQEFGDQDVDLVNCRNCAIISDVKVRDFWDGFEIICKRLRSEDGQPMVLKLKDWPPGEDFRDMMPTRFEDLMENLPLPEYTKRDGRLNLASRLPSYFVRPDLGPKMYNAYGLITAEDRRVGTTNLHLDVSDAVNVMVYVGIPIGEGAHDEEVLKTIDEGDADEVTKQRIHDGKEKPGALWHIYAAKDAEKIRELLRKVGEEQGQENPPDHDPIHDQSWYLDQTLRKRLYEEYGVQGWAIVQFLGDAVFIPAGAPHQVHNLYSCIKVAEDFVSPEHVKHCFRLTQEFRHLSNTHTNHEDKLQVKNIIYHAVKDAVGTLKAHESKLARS

Biological target: GFP-tagged FEN1 (UniProt P39748)
Assay: affinity purification with mass spectrometry; GFP or GFP-tagged FEN1 immunoprecipitated with anti-GFP antibody from nuclear extracts of UV-exposed HeLa cells; LC-MS/MS

- binding: binds
Substance: JMJD1B (also known as KDM3B) (from UniProt Q7LBC6 1-1761) (enzyme)

Results are given in words; binding and its absence hold for the method and conditions named. Binding seen in cells or lysates may run through a third protein. Here binding means that the protein was enriched with, or labelled near, the bait; the list need not be complete.
